Results published in PubChem BioAssay AID540256 (National Center for Advancing Translational Sciences (NCATS), 2011).
Among all 300,000 compounds or so, about 3,700 (1.2%) were called active. The shares of active, inactive and inconclusive entries below differ from those in the screen. Calls follow the shape of the full dose curve; tested in HEK293 cells. A potency beside an inconclusive call is a rough fit, not a confirmed value.

test: qHTS for Inhibitors of binding or entry into cells for Lassa Virus; details: Lassa virus pseudotype entry inhibition, cell reporter; series mostly up to 37.9 µM; also: nearly all actives have a fitted effect of over 50% in size
Potency is read from the fitted curve at half-maximal effect.

| Structure (SMILES) | Potency |
| --- | --- |
| COCCCNC(=O)CSc1nc2cc3c(cc2c(=O)n1CCCCCC(=O)NCc1ccc2c(c1)OCO2)OCO3 | inconclusive: 7.94 µM [activator, partial curve, poor fit] |
| CCOC(=O)N1CCC(NS(=O)(=O)c2cc(Br)cc3c2N(C(=O)CC)CC3)CC1 | inconclusive: 11.2 µM [inhibitor, single point] |
| CCc1ccc2c(c1)cc(CN(C(=S)Nc1cccc(C)c1)C1CC1)c1nnnn12 | inconclusive: 29.1 µM [inhibitor, single point] |
| COc1ccc(NC(=S)NC(NC(=O)c2cccc(C)c2)C(Cl)(Cl)Cl)c([N+](=O)[O-])c1 (stereo not drawn) | inconclusive: 11.2 µM [inhibitor, partial curve, poor fit] |
| CSCCC(NS(=O)(=O)c1ccc(Br)cc1)C(=O)OCC(=O)NC1CC1 (stereo not drawn) | inactive |
| CCc1nnc(NC(=O)c2sc3nc4c(cc3c2N)CCCCCC4)s1 | inconclusive: 0.891 µM [activator, partial curve, poor fit] |
| CCc1c(C)sc2c1CCN(C(=O)Nc1cc(C)cc(C)c1)C2c1ccccc1 (stereo not drawn) | inactive |
| CCOc1ccc(C(=O)CCC(=O)N2CCN(c3ncccn3)CC2)cc1 | inconclusive: 6.31 µM [inhibitor, single point] |
| COc1cc(NC(=O)CCS(=O)(=O)c2nc(-c3ccc4c(c3)OCO4)cc(C(F)(F)F)n2)cc(OC)c1OC | inactive |
| COc1ccc(O)c(CN2CCCC(N3CCN(c4ccccc4OC)CC3)C2)c1 (stereo not drawn) | inconclusive: 1.41 µM [activator, full curve, poor fit] |
| Cc1ccccc1OCC(O)COc1ccccc1C | inconclusive: 12.6 µM [activator, single point] |
| COC(=O)c1sc(N2C(=O)c3oc4ccccc4c(=O)c3C2c2ccc(O)cc2)nc1C (stereo not drawn) | inactive |
| O=C(CSc1nnc(NC(=O)c2c(F)cccc2Cl)s1)Nc1ccccc1F | inactive |
| C[C@H]1CC[C@H]2C(=O)N(Cc3ccccc3)C[C@@H](O)CN2[C@H]1c1cccc(Br)c1 | inconclusive: 0.006 µM [inhibitor, full curve, poor fit] |
| N#CCc1ccc(NC(=O)Nc2cccc(Cl)c2)cc1 | inactive |
| Cc1ccc(NC(=O)Cn2c(=O)n(CCCCC(=O)NCCc3ccc(Cl)cc3)c(=O)c3ccccc32)cc1 | inactive |
| COc1ccc(CNC(=O)CN2C(=O)COc3ccc(S(=O)(=O)N4CCC(C)CC4)cc32)cc1 | inactive |
| COc1ccc(OC)c(C2C3CN(C(C)C)CC=C3C(C#N)=C(N)C2(C#N)C#N)c1 (stereo not drawn) | inconclusive: 7.3 µM [inhibitor, partial curve] |
| O=C(Nc1cc(SCCO)cc([N+](=O)[O-])c1)c1ccco1 | inactive |
| Clc1ccc(N2CCN(Cc3cc4ccccn4n3)CC2)cc1 | inconclusive: 9.2 µM [inhibitor, partial curve] |
| COc1cc(C2c3cc4c(cc3CC3COC(=O)N32)OCO4)cc(OC)c1OC (stereo not drawn) | inconclusive: 0.562 µM [inhibitor, full curve] |
| Cc1ccc(-c2nnn(CC(=O)N(Cc3ccccc3)C(C(=O)NC(C)(C)C)c3ccncc3)n2)o1 (stereo not drawn) | inactive |
| COc1ccc(NS(=O)(=O)c2cccc(C(=O)NCC(c3ccccc3OC)N3CCCC3)c2)cc1 (stereo not drawn) | inactive |

2 of these compounds in a different format.
COc1ccc(O)c(CN2CCCC(N3CCN(c4ccccc4OC)CC3)C2)c1 (stereo not drawn)
  Potency: inconclusive: 1.41 µM [activator, full curve, poor fit]
Cc1ccccc1OCC(O)COc1ccccc1C
  Potency: inconclusive: 12.6 µM [activator, single point]

Reformatted: entries from further up
COc1cc(NC(=O)CCS(=O)(=O)c2nc(-c3ccc4c(c3)OCO4)cc(C(F)(F)F)n2)cc(OC)c1OC
  Potency: inactive
COc1ccc(O)c(CN2CCCC(N3CCN(c4ccccc4OC)CC3)C2)c1 (stereo not drawn)
  Potency: inconclusive: 1.41 µM [activator, full curve, poor fit]
Cc1ccccc1OCC(O)COc1ccccc1C
  Potency: inconclusive: 12.6 µM [activator, single point]

Remaining list, next part:

| Structure (SMILES) | Potency |
| --- | --- |
| Cc1ccc2nc(Cc3ccc(N)cc3)oc2c1 | inactive |
| CC(C)(CO)NCc1c(OCc2ccc(Cl)cc2)ccc2ccccc12 | active: 2.51 µM |
| COc1ccccc1NC(=O)Nc1cnccn1 | inconclusive: 6.31 µM [inhibitor, partial curve, poor fit] |
| CCCCCCN1C[C@H](n2cc(-c3ccc(F)cc3)nn2)[C@@H](O)C[C@H]1c1ccc(OC)cc1 | inconclusive: 0.445 µM [inhibitor, full curve, poor fit] |
| O=C(COc1ccccc1)Nc1ccc(NC(=O)c2ccco2)cc1 | inactive |
| O=C(c1cc2c(=O)n3ccccc3nc2s1)N1CCOCC1 | inconclusive: 1.12 µM [activator, full curve, poor fit] |
| O=c1[nH]c(CCl)nc2cc(-c3ccc(Cl)cc3)sc12 | active: 10 µM |
| COc1ccc(C(=O)CN2C(=O)c3ccccc3S2(=O)=O)cc1 | inconclusive: 2.24 µM [inhibitor, full curve, poor fit] |
| Cc1ccc2cc(C3C(C#N)=C(N)Oc4c3ccc3cccnc43)c(=O)[nH]c2c1 (stereo not drawn) | inconclusive: 16.4 µM [inhibitor, single point] |
| COc1ccc(-c2cc(C(=O)N3CCCCC3)c3ccccc3n2)cc1OC | inconclusive: 35.5 µM [inhibitor, single point] |
| CCc1ccc(S(=O)(=O)Nc2ccc3[nH]c(=O)sc3c2)cc1 | inconclusive: 1.78 µM [inhibitor, full curve] |
| CCCCCCn1c(SCCC)nc2c1c(=O)[nH]c(=O)n2C | inconclusive: 11.2 µM [inhibitor, partial curve, poor fit] |
| O=C(Nc1cccc(Cl)c1Cl)c1snnc1-c1ccccc1 | inconclusive: 11.2 µM [inhibitor, partial curve] |
| Cc1cccc(NC(=O)c2sc3nc4c(cc3c2N)CN(C(C)C)CC4)c1 | inconclusive: 31.6 µM [inhibitor, single point] |
| O=C1/C(=C\c2ccco2)SC(=S)N1c1ccccc1 | inactive |
| Cc1ccc(S(=O)(=O)N(C)C)cc1-n1c(SCC(=O)Nc2ccc(F)c(F)c2F)nc2ccccc2c1=O | inconclusive: 14.1 µM [inhibitor, single point] |
| CCc1cc(=S)n2c([nH]c3ccccc32)c1C#N | inconclusive: 35.5 µM [inhibitor, single point] |
| CNC(=O)c1nc(C)n(-c2cc(Cl)ccc2Cl)n1 | inactive |
| CCOc1cc(CNc2ccc(N3CCCC3)cc2)cc(Cl)c1OC | inconclusive: 12.6 µM [inhibitor, single point] |
| COc1ccc(Cl)cc1CN1C(=O)NC2(CCCCCC2)C1=O | inactive |
| c1ccc(Cn2nnnc2C(c2cccs2)N2CCSCC2)cc1 (stereo not drawn) | inconclusive: 2.91 µM [activator, single point] |
| Cc1nc(NC(=O)c2ccc(Br)s2)sc1C(=O)N(C)C | inactive |
| C=CCNC(=S)N/N=C/c1cn(-c2ccccc2)nc1-c1ccc(OC)cc1 | inactive |

| Structure (SMILES) | Potency |
| --- | --- |
| CCN(CCCC(=O)c1ccc(F)cc1)CCc1ccccc1 | inconclusive: 31.6 µM [inhibitor, partial curve, poor fit] |
| O=C(NNc1nc(-c2ccc(F)cc2)cs1)c1ccccc1 | inconclusive: 22.4 µM [inhibitor, single point] |
| C=CCOc1ccc(C2C(C#N)=C(N)N(Nc3ccccc3)C3=C2C(=O)CC(C)(C)C3)cc1OC (stereo not drawn) | inconclusive: 12.6 µM [inhibitor, partial curve, poor fit] |
| CCOc1ccc(-c2nnc(-c3ccco3)o2)cc1 | active: 5.8 µM |
| CC(/C=C/c1ccccc1)=N\NC(=O)c1cc(C)nc2ccccc12 | inconclusive: 35.5 µM [inhibitor, single point] |
| Clc1ccc(COn2c(-c3ccc(Cl)cc3Cl)nc3ncccc32)cc1 | inconclusive: 11.2 µM [inhibitor, partial curve, poor fit] |
| COc1ccc(OCc2nc3ccccc3[nH]2)cc1 | inconclusive: 10.3 µM [inhibitor, partial curve, poor fit] |
| Cc1sc2nc(Cc3ccccc3)[nH]c(=O)c2c1-c1ccccc1 | inconclusive: 29.1 µM [activator, single point] |
| CCN(C(=O)c1ccc(C(C)(C)C)cc1)c1nnc(Cn2nnc3ccccc32)s1 | inconclusive: 7.94 µM [inhibitor, partial curve] |
| CC(C)N(C(=O)CSc1nnc(Cc2csc(Nc3ccccc3)n2)o1)C(C)C | inconclusive: 14.1 µM [inhibitor, partial curve, poor fit] |
| COc1ccc(C(=O)C2CCCN(C(=O)CCC3=NNC(=O)CC3)C2)c(C)c1 (stereo not drawn) | inactive |
| CC(Sc1nc2ccc(C(=O)c3ccccc3)cc2[nH]1)C(=O)O (stereo not drawn) | inactive |
| Cc1cc([N+](=O)[O-])ccc1NC(c1nnc(-c2ccccc2)o1)c1ccccc1F (stereo not drawn) | inactive |
| CCCCOc1ccc(CC2C(=O)N(C)C(=O)N(C)C2=O)cc1 | inconclusive: 14.6 µM [activator, partial curve, poor fit] |
| Cc1ccc(S(=O)(=O)N/N=C/c2ccc(OC3CSC3)cc2)cc1 | inconclusive: 35.5 µM [inhibitor, single point] |
| CCCOc1ccc(/C=C/C(=O)NC2CCCCC2)cc1 | inconclusive: 10 µM [inhibitor, partial curve, poor fit] |
| COc1ccc(NC(=O)C[C@H]2C(=O)N(Cc3ccccc3)C[C@@H]2C)cc1 | inconclusive: 1.12 µM [inhibitor, full curve, poor fit] |
| CCN1CCN(C(=O)c2ccc(COc3ccc(Cl)cc3)o2)CC1 | inactive |
| C=CCN(C(=O)c1cccc(S(=O)(=O)N2CCN(C)CC2)c1)c1nc(-c2ccccc2)cs1 | inconclusive: 5.01 µM [inhibitor, partial curve, poor fit] |
| CC(C)(C)c1ccc(Oc2ccc(NC(=O)CCC(=O)OCC(=O)c3ccccc3)cc2)cc1 | inconclusive: 10 µM [activator, partial curve] |
| O=C(Nc1ccc(-c2cscn2)cc1)C1CCCN(Cc2ccc(CO)o2)C1 (stereo not drawn) | inconclusive: 3.98 µM [inhibitor, single point] |
| COc1ccc(CNC(=O)CN(C(=O)CCC(=O)Nc2ccccn2)c2cccc(C)c2)cc1 | inconclusive: 2.51 µM [inhibitor, full curve, poor fit] |
